Literature values in patent publication US9993488B2, “Dry powder formulations for inhalation” (OtiTopic Inc., priority 2014, dated 2018).
Some of these results come from one statement about several compounds together.

Conditions: after oral administration; cited from earlier work

In the case of `CC(=O)Oc1ccccc1C(=O)O` [aspirin, acetylsalicylic acid], the “time after which aspirin is undetectable” value is listed as 1 to 2 h.
